# Data taken from the supplement of paper PMC3334620.
# The full ranking holds about 33,000 sequences; the median of “E-score (-0.5 to 0.5)” is about -8e-05, and the highest 2% start at about 0.23. This is one part of the list.
# Biological target: T1, Nrg2 (UniProt P38082)
# T1 sequence: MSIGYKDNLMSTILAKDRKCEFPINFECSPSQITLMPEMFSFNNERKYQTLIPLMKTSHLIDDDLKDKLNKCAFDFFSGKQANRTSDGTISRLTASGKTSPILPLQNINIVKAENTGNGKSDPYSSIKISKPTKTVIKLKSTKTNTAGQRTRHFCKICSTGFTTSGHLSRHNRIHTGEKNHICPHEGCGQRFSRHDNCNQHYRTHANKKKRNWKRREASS
# Experiment: PBM E-score (8-mer binding enrichment) (E-score (-0.5 to 0.5)); higher = stronger / more preferred TF binding
# Conditions: protein concentration: 100 nM; construct: GST-full length
# Outline: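 The E-score, a modified Wilcoxon-Mann-Whitney statistic, was computed by the Universal PBM Analysis Suite for every ungapped eight-base word pooled with its reverse complement. Scans behind it were normalised with masliner after bound GST-tagged yeast transcription factors were detected with fluorescent anti-GST. The proteins, at about 100-200 nM, had been applied to universal all-10-mer Agilent arrays made double-stranded by primer extension.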
row,Sequence,PBM E-score
1,ACAGCGAT,-0.201
2,CGATGACC,-0.00928
3,CGTCCTGC,-0.116
4,CCGATGAC,-0.096
5,AGTCGCGC,0.174
6,CCACTCGG,-0.123
7,TATACGCA,0.136
8,CAAACAGA,0.0979
9,ATTCCGCC,0.171
10,CGGCTCCA,-0.114
11,ACCAATTC,0.0263
12,CCAGTGCG,-0.212
13,CATGTTGC,-0.0978
14,ATCTAGGA,0.125
15,AATAAGGT,0.0484
16,ATGATAAG,0.0805
17,ACAAGCGT,0.0207
18,GCAGGAGA,0.00405
19,ACCACTTA,0.0402
20,CAGGTCGG,-0.0695
21,CTTATTGA,0.0171
22,GACCCAGC,-0.333
23,CTATCCGC,0.144
24,ATACTACG,0.154
25,AGCGGGCG,-0.0722

row,Sequence,PBM E-score
1,CAGCCATC,0.0587
2,GCGTCTAC,-0.163
3,ACCCGTAT,-0.104
4,AGATTCTA,-0.0259
5,CACGAATA,0.193
6,CAAAGTAC,-0.0816
7,AATTAAAC,0.175
8,GCAAGGAA,0.0335
9,AGGCTTAG,-0.0575
10,ACTAGGGA,-0.147
11,ACTACCAT,0.0215
12,AGATGGGC,0.0593
13,TAGTAATA,0.177
14,AAGCTTAT,0.0868
15,CCATTCGG,0.00625
16,AAGAGACT,-0.298
17,AACAACAC,0.169
18,AGATATCT,0.209
19,CTCGGTAA,-0.0475
20,CATCAATA,0.182
21,CGAAACCA,0.0804
22,ACCGATAT,0.0668
23,AACATTAC,0.0574
24,ACAAACGC,0.0288
25,CAATAGGA,-0.149

row,Sequence,PBM E-score
1,CGAACCCG,-0.0536
2,ACGCCGAA,-0.0379
3,GCAGGGGC,0.0473
4,GTCTGATA,-0.066
5,AGAAACCG,0.145
6,CGCTCTAC,-0.0442
7,AGGCTCGG,-0.249
8,ATTGCCGG,-0.0502
9,CAGCGCAC,-0.155
10,ACTTTACA,0.0269
11,TATTGGAA,-0.236
12,CCCGACTA,-0.119
13,CGGATAAA,0.234
14,GTCTAATA,-0.137
15,TCGGGAAA,0.0979
16,AAACGCAT,-0.216
17,TATGATAA,0.219
18,CCATCCGA,0.118
19,ATTTGACA,-0.0488
20,ATAATCAA,0.0599
21,CGGCGGAG,-0.064
22,AGAGTGCC,-0.0757
23,GCAATTTA,0.126
24,CTAAGGGC,0.0457
25,AAAGTAGA,0.0791

row,Sequence,PBM E-score
1,GATCGCTA,-0.104
2,GCACTGGA,0.0259
3,CTCAGGGA,0.319
4,GCCAATCC,-0.0196
5,CTCGACGA,-0.0937
6,CCTGCTCG,-0.134
7,ATGCGGCA,0.0983
8,ACGTATAG,-0.0219
9,GACTAAAA,0.0739
10,AACTTACC,-0.067
11,CTAACAAC,0.0923
12,GTTTCCAA,-0.156
13,ATAGGATA,-0.0583
14,ATGCGCAG,0.0374
15,GGGTCAAA,0.106
16,AGTCCCTA,0.0553
17,CGGGGCGC,-0.113
18,ACGGCGGG,0.0668
19,GGAGCAAA,0.0118
20,TTCAGAAA,-0.0353
21,CAAGCCTC,-0.202
22,CCAAACCC,0.0949
23,ATGTAATG,0.115
24,AACAGGCC,-0.202
25,AAGTTTCG,-0.0277

row,Sequence,PBM E-score
1,AAGTGATA,-0.0985
2,TAATTGGA,0.069
3,ACCTCAAT,-9e-05
4,CGATCAGA,-0.245
5,CGAATATA,0.0742
6,AGTACTTG,0.0357
7,GCCGATAA,-0.0861
8,CTCCAGGA,-0.321
9,CGGGCACA,-0.184
10,AACATGTT,0.0039
11,CACGGAGA,0.0874
12,TAAAATCA,0.0206
13,CGACCGCC,-0.0751
14,CCTTACCC,0.0689
15,AATACCCT,0.155
16,CATACGAG,-0.142
17,CTTCTATA,-0.0869
18,GCGCAGGA,-0.0662
19,GGGTTCTA,0.0437
20,AAAGCTTG,0.00751
21,AGTGAGGA,-0.162
22,AAAAGCCC,-0.0279
23,CCCGCACA,0.0668
24,AAGGTTGT,0.0705
25,TTAACTAA,0.249

row,Sequence,PBM E-score
1,TCCCCACA,-0.193
2,GCAAAGTA,0.14
3,AACCTGGG,-0.131
4,AAATTCTA,-0.154
5,CCGGTATA,0.0762
6,ACGGATCA,-0.0271
7,AGTCAATA,-0.0505
8,AGCGGCGA,0.043
9,GCTTTGCC,-0.251
10,GCTTCCAA,-0.0524
11,AACTTCGT,-0.0105
12,CCCACCCG,0.231
13,ACCCAATG,-0.127
14,ACGGCATC,-0.168
15,ATGTACTC,-0.0872
16,GTTTTTGA,0.203
17,GTTGTGCA,-0.0974
18,CCGGTGGC,-0.237
19,AAGACGGT,-0.161
20,AGCCTCAA,-0.112
21,GCCTTCTA,-0.0848
22,ACCTTATC,-0.0402
23,ACACCTGA,-0.0119
24,ACAGGCAG,0.0296
25,AAGGAATC,-0.137

# Not a retest: entries from further up.
row,Sequence,PBM E-score
22,CCAAACCC,0.0949
23,ATGTAATG,0.115
24,AACAGGCC,-0.202
25,AAGTTTCG,-0.0277
1,AAGTGATA,-0.0985
2,TAATTGGA,0.069
3,ACCTCAAT,-9e-05
4,CGATCAGA,-0.245
5,CGAATATA,0.0742
6,AGTACTTG,0.0357
7,GCCGATAA,-0.0861
8,CTCCAGGA,-0.321
9,CGGGCACA,-0.184
10,AACATGTT,0.0039
11,CACGGAGA,0.0874
12,TAAAATCA,0.0206
13,CGACCGCC,-0.0751
14,CCTTACCC,0.0689
15,AATACCCT,0.155
16,CATACGAG,-0.142
17,CTTCTATA,-0.0869
18,GCGCAGGA,-0.0662
19,GGGTTCTA,0.0437
20,AAAGCTTG,0.00751
21,AGTGAGGA,-0.162
22,AAAAGCCC,-0.0279
23,CCCGCACA,0.0668
24,AAGGTTGT,0.0705
25,TTAACTAA,0.249
1,TCCCCACA,-0.193
2,GCAAAGTA,0.14
3,AACCTGGG,-0.131
4,AAATTCTA,-0.154
5,CCGGTATA,0.0762
6,ACGGATCA,-0.0271
7,AGTCAATA,-0.0505
8,AGCGGCGA,0.043
9,GCTTTGCC,-0.251
10,GCTTCCAA,-0.0524
11,AACTTCGT,-0.0105
12,CCCACCCG,0.231
13,ACCCAATG,-0.127
14,ACGGCATC,-0.168
15,ATGTACTC,-0.0872
16,GTTTTTGA,0.203
17,GTTGTGCA,-0.0974
18,CCGGTGGC,-0.237
19,AAGACGGT,-0.161
20,AGCCTCAA,-0.112
21,GCCTTCTA,-0.0848
22,ACCTTATC,-0.0402
23,ACACCTGA,-0.0119

# (continued)

row,Sequence,PBM E-score
1,GTTAGCGA,-0.131
2,ATGCTTCC,-0.108
3,ATTACCCG,0.0956
4,CTCCGCTC,-0.156
5,ACACGGCA,-0.0844
6,TCAGCTCA,0.0651
7,CTGTTCAC,0.0743
8,CATCAATG,0.0811
9,CACTGACA,0.0481
10,AAAGTCTG,-0.0463
11,CTCCGGTA,-0.0857
12,GCCGAGGC,0.177
13,ATTTGGGC,-0.0166
14,GGTTAAAC,-0.104
15,CGTAGTTC,-0.0931
16,GCAAACCA,0.0737
17,ATCGCTTC,-0.0538
18,CTTAAGGC,-0.0614
19,AGCGAGAT,0.18
20,CGAGCACG,0.0279
21,ACCCCGGT,-0.174
22,ATCCTAGG,-0.0272
